According to publication PMC3513622 (Antiviral research, 2012):

System: Epstein-Barr virus (EBV)

In the case of `CO[C@@H]1[C@H](N(C)C(=O)c2ccccc2)C[C@H]2O[C@]1(C)n1c3ccccc3c3c4c(c5c6ccccc6n2c5c31)C(=O)NC4` [PKC-412], the “TI (therapeutic index, CC50/IC50 ratio)” value was 2.
